The source of these data is PubChem BioAssay AID493014 (National Center for Advancing Translational Sciences (NCATS), 2011).

The assay is described as follows: qHTS Assay to Find Inhibitors of Chronic Active B-Cell Receptor Signaling. Particulars: ABC-DLBCL IkBa-CBG/CBR reporter, luminescence ratio (green luciferase fused to IkBa over red control in TMD8 lymphoma cells), 4 h. Put shortly: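 Compounds up to 46 uM were incubated four hours with TMD8 cells whose green CBG68 luciferase is fused to IkappaBalpha; red CBR luminescence normalised the signal, and concentration-effect curves were fitted to fusion, red and ratio data.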

The mark [1] stands for this setting: measured here: CBR red luminescence, cell number.
[2] abbreviates: measured here: IkBa-CBG green luminescence.

The list shows a part of the results. Further columns of the screen follow, without active or inactive calls. The list favours compounds with an active or inconclusive main result. Words in brackets tell the shape of the fitted curve; partial curves, single points and poor fits give uncertain potencies.

On to `Cc1ccc2cccc(OC(=O)N3CCCC3)c2n1`, for which the half-maximal activity concentration (AC50) under setting [1] is 18.4 µM [rising, partial curve, poor fit]. Same read-out and setting: next, `COc1ccc(N2CCN(Cc3nc4ccccc4[nH]3)CC2)cc1`: 15.8 µM [rising, partial curve, poor fit]. In the case of `COCCNC(=O)c1c(NC(=O)c2ccc(Br)o2)n(Cc2ccccc2)c2nc3ccccc3nc12`, the AC50 under setting [2] was 29.1 µM [falling, single point].

In the case of `Cc1c(N=Cc2c(O)n(CCc3ccccc3)c(=O)[nH]c2=O)c(=O)n(-c2ccccc2)n1C`, the half-maximal activity concentration (AC50) under setting [1] was 0.517 µM [rising, partial curve, poor fit]. On the same count and under the same terms, under `COc1ccc(-c2csc(NC(=O)C3CCN(C(=O)c4ccc(F)cc4)CC3)n2)cc1OC` stands 35.5 µM [falling, single point].

For the molecule `CCN(CC)C(=O)c1ccc(NC(=O)c2cccc(F)c2)cc1`, under setting [1], the AC50 is 7.31 µM [falling, single point]. Still for that read-out and setting: next, `COc1ccc(NC2=NCC(C)S2)cc1` (configuration not stated): 0.0891 µM [falling, full curve, poor fit]; `COc1ccc(NC(=O)N(CCO)Cc2cc3c(C)cc(C)cc3[nH]c2=O)cc1`: 3.55 µM [rising, single point]; `C=CCn1c(O)c(C(C)=NCCN2CCCCC2)c(=O)[nH]c1=O`: 29.1 µM [falling, single point]. On to `COC(=O)C1CN(C#N)N(c2ccc(Cl)cc2)C12c1ccccc1-c1ccccc12` (configuration not stated), for which the half-maximal activity concentration (AC50) runs as follows: under setting [1], 1.84 µM [falling, full curve]; under setting [2], 2.59 µM [rising, full curve, poor fit]. Regarding `c1ccc2c(CNC3CCCCCC3)c[nH]c2c1`, the concentration at half-maximal activity (AC50) under setting [1] was 23.1 µM [falling, single point]. On the same count and under the same terms, next, `Cc1cccc(CNCCc2c[nH]c3ccccc23)c1`: 22.4 µM [falling, single point]; `COc1ccc(/C=N/Nc2nc3ccccc3c(=O)[nH]2)cc1`: 6.31 µM [falling, partial curve].

Regarding `CCOc1cc(/C=C\[N+](=O)[O-])ccc1OCC(=O)Nc1ccccc1C`, the AC50 under setting [1] is 22.4 µM [falling, partial curve, poor fit]. Still for that read-out and setting: under `CC(=O)[C@@]1(O)CCC2C3CC=C4C[C@@H](O)CC[C@]4(C)C3CC[C@@]21C` (some centres not stated) stands 5.17 µM [rising, full curve, poor fit]; under `COc1ccc(CCNC(=O)c2c(N)n(CCN3CCOCC3)c3nc4ccccc4nc23)cc1OC`, 35.5 µM [falling, single point].

Regarding `c1ccc2c3c([nH]c2c1)CNCC3`, the half-maximal activity concentration (AC50) under setting [1] is 29.1 µM [rising, single point]. Consider `N#Cc1ccc(NC(=O)CN2C(=O)NC3(CCCCCCC3)C2=O)cc1Cl`, for which, under setting [1], the half-maximal activity concentration (AC50) is 16.4 µM [falling, single point]. For `O=C1C(=O)c2cccc3cccc1c23`, the AC50 is 10.3 µM [rising, partial curve] under setting [1] and 6.51 µM [falling, partial curve] under setting [2]. For the molecule `O=c1c2ccccc2nc(N/N=C/c2ccccc2)n1O`, under setting [1], the concentration at half-maximal activity (AC50) is 6.31 µM [falling, full curve]. On the same count and under the same terms, under `Clc1ccc(C(c2ccc(Cl)cc2)n2cc[n+](CC(OCc3ccc(Cl)cc3Cl)c3ccc(Cl)cc3Cl)c2)cc1` (configuration not stated) stands 29.1 µM [falling, single point]; under `COc1ccccc1N(Cc1cc(=O)[nH]c2ccccc12)C(=O)c1cccc([N+](=O)[O-])c1`, 12.6 µM [falling, partial curve, poor fit]; under `COC(=O)C1=C(c2ccc(OC(F)(F)F)cc2)C[C@@H]2CC[C@H]1N2C(=O)NCc1cccc2ccccc12`, 2.91 µM [falling, partial curve, poor fit]. Same read-out and setting: under `NC(=O)CC(NC(=O)c1ccc(Br)cc1)c1ccc(N2CCCCCCC2)c([N+](=O)[O-])c1` (configuration not stated) stands 11.2 µM [falling, partial curve]. For `Cc1cccc(OCCn2c(=O)oc3ccc(C)cc32)c1`, the concentration at half-maximal activity (AC50) under setting [1] was 3.55 µM [rising, single point]. On the same count and under the same terms, next, `CCOC(=O)c1ccc2c(c1)n(Cc1ccccc1)c(C)[n+]2CC`: 3.16 µM [falling, partial curve, poor fit]. Same read-out and setting: under `CCOC(=O)C1CCN(C=C2C(=O)N(C)C(=S)N(C)C2=O)CC1` stands 18.4 µM [falling, single point]; under `O=c1oc(Nc2ccccc2F)nc2ccccc12`, 2.51 µM [falling, full curve]; under `CN(C(=O)Oc1ccc(F)cc1)c1ccccc1`, 35.5 µM [rising, single point].

For `CCCCNC(=O)Nc1ccc(C(O)(C(=O)OC)C(F)(F)F)cc1` (configuration not stated), the concentration at half-maximal activity (AC50) under setting [1] was 11.2 µM [rising, single point]. The same measure, in the same setting: next, `N#CC(C#N)=C(C#N)c1ccc(Nc2ccccc2)cc1`: 11.2 µM [falling, partial curve]; `Cc1ccc(CN2CCN(Cc3ccccc3)CC2)cc1`: 22.4 µM [rising, single point]; `O=c1[nH]c(=S)n(C2CC2)c(O)c1C=Nc1ccc2c(c1)OCO2`: 10 µM [rising, partial curve, poor fit]. As for `Cc1cc(O)c2c(c1)C(=O)C13C(=C2O)C(=O)[C@H]2[C@@H](O)[C@@H]1[C@H]1[C@H](O)[C@@H]3C(=O)C3=C(O)c4c(O)cc(C)cc4C(=O)C312` (some centres not stated), the AC50 runs as follows: under setting [1], 20.6 µM [falling, single point]; under setting [2], 32.6 µM [rising, partial curve, poor fit].

In the case of `Nc1ccc(Cl)cc1C(=O)c1ccccc1`, under setting [1], the AC50 is 0.282 µM [rising, full curve, poor fit]. Still for that read-out and setting: next, `COc1ccc(Cl)cc1N=Cc1c(O)n(C)c(=O)n(C)c1=O`: 35.5 µM [falling, single point]; `O=C(CCCCn1c(=O)[nH]c2ccccc2c1=O)N1CCN(c2cccc(C(F)(F)F)c2)CC1`: 3.16 µM [falling, single point]. On the same count and under the same terms, next, `C=CCN1C(=O)/C(=C\c2ccc(N3CCOCC3)o2)C(=O)NC1=S`: 20.6 µM [falling, single point]; `CCCCN=C[C@]12CCC(O)CC1(O)CCC1[C@@H]2CC[C@]2(C)[C@H](C3C=CC(=O)O3)CCC12O` (some centres not stated): 0.355 µM [rising, partial curve, poor fit].
